Assay results from publication PMC12508185.
Results are given in words; binding and its absence hold for the method and conditions named. For part of these data: Binding seen in cells or lysates may run through a third protein. Some results given as binding are weak or reduced against the parent protein; the word gives no strength. For part of these data: Sequences can lack the tags named with a protein.

Legend:
[1] = target: T1, SRAS1.1-cYFP (Arabidopsis thaliana) (UniProt Q9FKX5); assay: split reporter; BiFC in N. benthamiana leaves; cYFP and nYFP fusions; confocal microscopy after 48 h
T1 sequence: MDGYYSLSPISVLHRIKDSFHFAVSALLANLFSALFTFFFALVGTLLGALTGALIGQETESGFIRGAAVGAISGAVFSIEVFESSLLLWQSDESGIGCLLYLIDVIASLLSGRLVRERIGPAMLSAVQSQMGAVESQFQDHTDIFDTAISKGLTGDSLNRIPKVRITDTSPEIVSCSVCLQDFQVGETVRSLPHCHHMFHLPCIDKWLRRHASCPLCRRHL

[2] = target: T2, DSK2B of the competitive pull-down (Arabidopsis thaliana) (UniProt Q9SII8); assay: pull-down; competitive pull-down with rising SRAS1.2 levels (Appendix Fig. S8D); methods not given
T2 sequence: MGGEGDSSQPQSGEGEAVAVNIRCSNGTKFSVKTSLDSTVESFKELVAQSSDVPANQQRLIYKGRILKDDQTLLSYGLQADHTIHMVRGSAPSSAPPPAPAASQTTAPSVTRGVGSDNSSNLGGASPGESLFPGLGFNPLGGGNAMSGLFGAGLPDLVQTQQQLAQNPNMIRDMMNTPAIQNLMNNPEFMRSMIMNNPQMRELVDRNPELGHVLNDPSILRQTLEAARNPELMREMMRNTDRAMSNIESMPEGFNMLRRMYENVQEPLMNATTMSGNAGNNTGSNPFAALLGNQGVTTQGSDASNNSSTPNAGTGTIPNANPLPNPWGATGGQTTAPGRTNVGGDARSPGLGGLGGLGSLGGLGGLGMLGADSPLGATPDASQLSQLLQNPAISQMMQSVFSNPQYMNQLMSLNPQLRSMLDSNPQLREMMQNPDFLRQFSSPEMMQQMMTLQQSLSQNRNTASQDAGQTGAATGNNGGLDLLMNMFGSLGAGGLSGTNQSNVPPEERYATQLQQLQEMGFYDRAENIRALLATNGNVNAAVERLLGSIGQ

[3] = target: T3, SRAS1.1-BD (Arabidopsis thaliana) (UniProt Q9FKX5); assay: two-hybrid; SRAS1.1 in pGBKT7 (BD), DSK2A or DSK2B in pGADT7 (AD), yeast strain Gold; growth on SD/-Ade-His-Leu-Trp
T3 sequence: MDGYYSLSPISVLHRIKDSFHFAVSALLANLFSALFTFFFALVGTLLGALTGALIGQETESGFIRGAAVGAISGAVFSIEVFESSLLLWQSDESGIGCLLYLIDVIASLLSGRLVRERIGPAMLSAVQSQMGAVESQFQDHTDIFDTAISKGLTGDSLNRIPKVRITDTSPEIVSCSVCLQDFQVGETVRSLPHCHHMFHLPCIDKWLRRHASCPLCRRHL

[4] = target: T4, SRAS1.1-cLUC (Arabidopsis thaliana) (UniProt Q9FKX5); assay: split reporter; luciferase complementation imaging (LCI) in N. benthamiana leaves; cLUC and nLUC fusions; 0.2 mM D-luciferin, CCD camera
T4 sequence: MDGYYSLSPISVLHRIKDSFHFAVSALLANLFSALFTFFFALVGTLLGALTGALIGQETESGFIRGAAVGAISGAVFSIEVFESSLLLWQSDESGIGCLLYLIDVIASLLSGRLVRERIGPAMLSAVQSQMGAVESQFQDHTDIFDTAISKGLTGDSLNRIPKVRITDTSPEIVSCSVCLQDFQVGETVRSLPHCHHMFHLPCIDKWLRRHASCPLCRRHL

[5] = target: T5, SRAS1.1-GFP (Arabidopsis thaliana) (UniProt Q9FKX5); assay: co-IP; SRAS1.1-GFP co-infiltrated with DSK2A-HA or DSK2B-HA in N. benthamiana leaves; anti-GFP magnetic beads, 4 °C, 5-6 h; blots with anti-GFP and anti-HA
T5 sequence: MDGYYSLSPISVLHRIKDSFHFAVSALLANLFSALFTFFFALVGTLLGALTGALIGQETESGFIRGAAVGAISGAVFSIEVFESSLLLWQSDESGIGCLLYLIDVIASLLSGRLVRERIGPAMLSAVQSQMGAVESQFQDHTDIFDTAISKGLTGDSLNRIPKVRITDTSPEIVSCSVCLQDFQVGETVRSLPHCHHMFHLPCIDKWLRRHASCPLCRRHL

B1: nYFP-DSK2B (protein, UniProt Q9SII8 1-551)
chain: MGGEGDSSQPQSGEGEAVAVNIRCSNGTKFSVKTSLDSTVESFKELVAQSSDVPANQQRLIYKGRILKDDQTLLSYGLQADHTIHMVRGSAPSSAPPPAPAASQTTAPSVTRGVGSDNSSNLGGASPGESLFPGLGFNPLGGGNAMSGLFGAGLPDLVQTQQQLAQNPNMIRDMMNTPAIQNLMNNPEFMRSMIMNNPQMRELVDRNPELGHVLNDPSILRQTLEAARNPELMREMMRNTDRAMSNIESMPEGFNMLRRMYENVQEPLMNATTMSGNAGNNTGSNPFAALLGNQGVTTQGSDASNNSSTPNAGTGTIPNANPLPNPWGATGGQTTAPGRTNVGGDARSPGLGGLGGLGSLGGLGGLGMLGADSPLGATPDASQLSQLLQNPAISQMMQSVFSNPQYMNQLMSLNPQLRSMLDSNPQLREMMQNPDFLRQFSSPEMMQQMMTLQQSLSQNRNTASQDAGQTGAATGNNGGLDLLMNMFGSLGAGGLSGTNQSNVPPEERYATQLQQLQEMGFYDRAENIRALLATNGNVNAAVERLLGSIGQ
[1]
  binding: binds

B2: SRAS1.1 of the competitive pull-down (protein, UniProt Q9FKX5 1-221)
chain: MDGYYSLSPISVLHRIKDSFHFAVSALLANLFSALFTFFFALVGTLLGALTGALIGQETESGFIRGAAVGAISGAVFSIEVFESSLLLWQSDESGIGCLLYLIDVIASLLSGRLVRERIGPAMLSAVQSQMGAVESQFQDHTDIFDTAISKGLTGDSLNRIPKVRITDTSPEIVSCSVCLQDFQVGETVRSLPHCHHMFHLPCIDKWLRRHASCPLCRRHL
[2]
  binding: binds

B3: DSK2A-AD (protein, UniProt Q9SII9 1-538)
chain: MGGEADSRQPLTAEGVAVAVNVRCSNGTKFSVTTSLDSTVESFKELIAQNSDVPANQQRLIYKGRILKDDQTLLSYGLQADHTVHMVRGFVPSSPSAPAANAGNQTTAPQAVGSNDSSNLGGGESLFPGLGFNPLGGGNAMAGLFGSGLPDLEQAQQQLAQNPNMIREMMNTPAIQNLMNNPEFMRSMIMNNPQMRELVDRNPELGHVLNDPSILRQTLEAARNPELMREMMRNTDRAMSNIESMPEGFNMLRRMYENVQEPLMNATTMSENAGNNTSSNPFAALLGNQGVTTQGSDTSNNISAPNAETGTPNANPLPNPWGATAGQTTAPGRTNAGLGGLGGLGGLGGLGMLGADSPLGATPDASQLSQILQNPAMSQMMQSVLSNPQYMNQLMSLNPQLRSMLDMNPQLREMMQNPDFLRQFSSPEMMQQMMSLQQSLFSQNRNTAGQDPTQTGAATGTANNGGLDLLMNMFGSLGAGGLSGTNQPNVPPEERFATQLQQLQEMGFYDRAENIRALLATNGNVNAAVERLLGSIGQ
[3]
  binding: binds

B4: DSK2B-AD (protein, UniProt Q9SII8 1-551)
chain: MGGEGDSSQPQSGEGEAVAVNIRCSNGTKFSVKTSLDSTVESFKELVAQSSDVPANQQRLIYKGRILKDDQTLLSYGLQADHTIHMVRGSAPSSAPPPAPAASQTTAPSVTRGVGSDNSSNLGGASPGESLFPGLGFNPLGGGNAMSGLFGAGLPDLVQTQQQLAQNPNMIRDMMNTPAIQNLMNNPEFMRSMIMNNPQMRELVDRNPELGHVLNDPSILRQTLEAARNPELMREMMRNTDRAMSNIESMPEGFNMLRRMYENVQEPLMNATTMSGNAGNNTGSNPFAALLGNQGVTTQGSDASNNSSTPNAGTGTIPNANPLPNPWGATGGQTTAPGRTNVGGDARSPGLGGLGGLGSLGGLGGLGMLGADSPLGATPDASQLSQLLQNPAISQMMQSVFSNPQYMNQLMSLNPQLRSMLDSNPQLREMMQNPDFLRQFSSPEMMQQMMTLQQSLSQNRNTASQDAGQTGAATGNNGGLDLLMNMFGSLGAGGLSGTNQSNVPPEERYATQLQQLQEMGFYDRAENIRALLATNGNVNAAVERLLGSIGQ
[3]
  binding: binds

B5: nLUC-DSK2A (protein, UniProt Q9SII9 1-538)
chain: MGGEADSRQPLTAEGVAVAVNVRCSNGTKFSVTTSLDSTVESFKELIAQNSDVPANQQRLIYKGRILKDDQTLLSYGLQADHTVHMVRGFVPSSPSAPAANAGNQTTAPQAVGSNDSSNLGGGESLFPGLGFNPLGGGNAMAGLFGSGLPDLEQAQQQLAQNPNMIREMMNTPAIQNLMNNPEFMRSMIMNNPQMRELVDRNPELGHVLNDPSILRQTLEAARNPELMREMMRNTDRAMSNIESMPEGFNMLRRMYENVQEPLMNATTMSENAGNNTSSNPFAALLGNQGVTTQGSDTSNNISAPNAETGTPNANPLPNPWGATAGQTTAPGRTNAGLGGLGGLGGLGGLGMLGADSPLGATPDASQLSQILQNPAMSQMMQSVLSNPQYMNQLMSLNPQLRSMLDMNPQLREMMQNPDFLRQFSSPEMMQQMMSLQQSLFSQNRNTAGQDPTQTGAATGTANNGGLDLLMNMFGSLGAGGLSGTNQPNVPPEERFATQLQQLQEMGFYDRAENIRALLATNGNVNAAVERLLGSIGQ
[4]
  binding: binds

B6: nLUC-DSK2B (protein, UniProt Q9SII8 1-551)
chain: MGGEGDSSQPQSGEGEAVAVNIRCSNGTKFSVKTSLDSTVESFKELVAQSSDVPANQQRLIYKGRILKDDQTLLSYGLQADHTIHMVRGSAPSSAPPPAPAASQTTAPSVTRGVGSDNSSNLGGASPGESLFPGLGFNPLGGGNAMSGLFGAGLPDLVQTQQQLAQNPNMIRDMMNTPAIQNLMNNPEFMRSMIMNNPQMRELVDRNPELGHVLNDPSILRQTLEAARNPELMREMMRNTDRAMSNIESMPEGFNMLRRMYENVQEPLMNATTMSGNAGNNTGSNPFAALLGNQGVTTQGSDASNNSSTPNAGTGTIPNANPLPNPWGATGGQTTAPGRTNVGGDARSPGLGGLGGLGSLGGLGGLGMLGADSPLGATPDASQLSQLLQNPAISQMMQSVFSNPQYMNQLMSLNPQLRSMLDSNPQLREMMQNPDFLRQFSSPEMMQQMMTLQQSLSQNRNTASQDAGQTGAATGNNGGLDLLMNMFGSLGAGGLSGTNQSNVPPEERYATQLQQLQEMGFYDRAENIRALLATNGNVNAAVERLLGSIGQ
[4]
  binding: binds

B7: DSK2A-HA (protein, UniProt Q9SII9 1-538)
chain: MGGEADSRQPLTAEGVAVAVNVRCSNGTKFSVTTSLDSTVESFKELIAQNSDVPANQQRLIYKGRILKDDQTLLSYGLQADHTVHMVRGFVPSSPSAPAANAGNQTTAPQAVGSNDSSNLGGGESLFPGLGFNPLGGGNAMAGLFGSGLPDLEQAQQQLAQNPNMIREMMNTPAIQNLMNNPEFMRSMIMNNPQMRELVDRNPELGHVLNDPSILRQTLEAARNPELMREMMRNTDRAMSNIESMPEGFNMLRRMYENVQEPLMNATTMSENAGNNTSSNPFAALLGNQGVTTQGSDTSNNISAPNAETGTPNANPLPNPWGATAGQTTAPGRTNAGLGGLGGLGGLGGLGMLGADSPLGATPDASQLSQILQNPAMSQMMQSVLSNPQYMNQLMSLNPQLRSMLDMNPQLREMMQNPDFLRQFSSPEMMQQMMSLQQSLFSQNRNTAGQDPTQTGAATGTANNGGLDLLMNMFGSLGAGGLSGTNQPNVPPEERFATQLQQLQEMGFYDRAENIRALLATNGNVNAAVERLLGSIGQ
[5]
  binding: binds

B8: DSK2B-HA (protein, UniProt Q9SII8 1-551)
chain: MGGEGDSSQPQSGEGEAVAVNIRCSNGTKFSVKTSLDSTVESFKELVAQSSDVPANQQRLIYKGRILKDDQTLLSYGLQADHTIHMVRGSAPSSAPPPAPAASQTTAPSVTRGVGSDNSSNLGGASPGESLFPGLGFNPLGGGNAMSGLFGAGLPDLVQTQQQLAQNPNMIRDMMNTPAIQNLMNNPEFMRSMIMNNPQMRELVDRNPELGHVLNDPSILRQTLEAARNPELMREMMRNTDRAMSNIESMPEGFNMLRRMYENVQEPLMNATTMSGNAGNNTGSNPFAALLGNQGVTTQGSDASNNSSTPNAGTGTIPNANPLPNPWGATGGQTTAPGRTNVGGDARSPGLGGLGGLGSLGGLGGLGMLGADSPLGATPDASQLSQLLQNPAISQMMQSVFSNPQYMNQLMSLNPQLRSMLDSNPQLREMMQNPDFLRQFSSPEMMQQMMTLQQSLSQNRNTASQDAGQTGAATGNNGGLDLLMNMFGSLGAGGLSGTNQSNVPPEERYATQLQQLQEMGFYDRAENIRALLATNGNVNAAVERLLGSIGQ
[5]
  binding: binds

B9: nYFP-DSK2A (protein, UniProt Q9SII9 1-538)
chain: MGGEADSRQPLTAEGVAVAVNVRCSNGTKFSVTTSLDSTVESFKELIAQNSDVPANQQRLIYKGRILKDDQTLLSYGLQADHTVHMVRGFVPSSPSAPAANAGNQTTAPQAVGSNDSSNLGGGESLFPGLGFNPLGGGNAMAGLFGSGLPDLEQAQQQLAQNPNMIREMMNTPAIQNLMNNPEFMRSMIMNNPQMRELVDRNPELGHVLNDPSILRQTLEAARNPELMREMMRNTDRAMSNIESMPEGFNMLRRMYENVQEPLMNATTMSENAGNNTSSNPFAALLGNQGVTTQGSDTSNNISAPNAETGTPNANPLPNPWGATAGQTTAPGRTNAGLGGLGGLGGLGGLGMLGADSPLGATPDASQLSQILQNPAMSQMMQSVLSNPQYMNQLMSLNPQLRSMLDMNPQLREMMQNPDFLRQFSSPEMMQQMMSLQQSLFSQNRNTAGQDPTQTGAATGTANNGGLDLLMNMFGSLGAGGLSGTNQPNVPPEERFATQLQQLQEMGFYDRAENIRALLATNGNVNAAVERLLGSIGQ
[1]
  binding: binds
